Measurements reported in the supplement of paper PMC12819154, “High-throughput peptide-centric local stability assay extends protein–ligand identification to membrane proteins, tissues and bacteria” (Nature Structural & Molecular Biology, 2025).
The other results are listed elsewhere or left out. Most values lie at the level of the controls, where differences are scatter.

Amino acid sequences for entries named in this document (tags omitted). A change or cut given only in a name is not applied to a line headed by its entry.
UniProt Q9UNF0: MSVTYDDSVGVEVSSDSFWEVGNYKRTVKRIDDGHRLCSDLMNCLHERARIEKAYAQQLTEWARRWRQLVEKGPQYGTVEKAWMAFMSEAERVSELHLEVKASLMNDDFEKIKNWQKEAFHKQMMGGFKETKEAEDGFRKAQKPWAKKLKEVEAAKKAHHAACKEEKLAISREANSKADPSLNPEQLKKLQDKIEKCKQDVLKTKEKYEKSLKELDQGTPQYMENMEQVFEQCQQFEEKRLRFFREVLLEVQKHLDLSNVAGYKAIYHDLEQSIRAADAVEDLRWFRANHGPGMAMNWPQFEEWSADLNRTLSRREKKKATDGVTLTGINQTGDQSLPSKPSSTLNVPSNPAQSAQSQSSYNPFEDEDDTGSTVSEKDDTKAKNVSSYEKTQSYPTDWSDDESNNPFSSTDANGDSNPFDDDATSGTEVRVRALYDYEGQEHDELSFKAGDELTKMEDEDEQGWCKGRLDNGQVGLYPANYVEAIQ
UniProt Q9Y222: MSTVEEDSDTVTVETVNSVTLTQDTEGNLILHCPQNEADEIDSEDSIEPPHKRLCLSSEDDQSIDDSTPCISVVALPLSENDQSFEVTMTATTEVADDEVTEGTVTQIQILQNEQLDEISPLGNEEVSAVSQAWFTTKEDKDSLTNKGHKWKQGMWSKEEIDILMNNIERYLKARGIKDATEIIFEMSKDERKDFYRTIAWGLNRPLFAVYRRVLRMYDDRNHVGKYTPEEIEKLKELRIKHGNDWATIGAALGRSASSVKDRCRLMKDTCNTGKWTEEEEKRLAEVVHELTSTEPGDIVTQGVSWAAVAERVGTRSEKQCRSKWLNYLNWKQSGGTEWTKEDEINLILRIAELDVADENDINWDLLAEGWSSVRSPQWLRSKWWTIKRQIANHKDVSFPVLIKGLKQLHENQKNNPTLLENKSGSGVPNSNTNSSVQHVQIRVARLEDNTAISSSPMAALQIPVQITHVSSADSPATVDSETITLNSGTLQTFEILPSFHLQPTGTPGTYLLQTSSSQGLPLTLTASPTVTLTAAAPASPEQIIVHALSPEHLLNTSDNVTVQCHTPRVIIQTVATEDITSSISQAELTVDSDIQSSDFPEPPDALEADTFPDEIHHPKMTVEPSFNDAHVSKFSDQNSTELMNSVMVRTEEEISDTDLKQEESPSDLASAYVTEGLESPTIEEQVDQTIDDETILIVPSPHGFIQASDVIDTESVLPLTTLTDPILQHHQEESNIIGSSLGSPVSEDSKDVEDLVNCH
UniProt Q9Y230, whole entry: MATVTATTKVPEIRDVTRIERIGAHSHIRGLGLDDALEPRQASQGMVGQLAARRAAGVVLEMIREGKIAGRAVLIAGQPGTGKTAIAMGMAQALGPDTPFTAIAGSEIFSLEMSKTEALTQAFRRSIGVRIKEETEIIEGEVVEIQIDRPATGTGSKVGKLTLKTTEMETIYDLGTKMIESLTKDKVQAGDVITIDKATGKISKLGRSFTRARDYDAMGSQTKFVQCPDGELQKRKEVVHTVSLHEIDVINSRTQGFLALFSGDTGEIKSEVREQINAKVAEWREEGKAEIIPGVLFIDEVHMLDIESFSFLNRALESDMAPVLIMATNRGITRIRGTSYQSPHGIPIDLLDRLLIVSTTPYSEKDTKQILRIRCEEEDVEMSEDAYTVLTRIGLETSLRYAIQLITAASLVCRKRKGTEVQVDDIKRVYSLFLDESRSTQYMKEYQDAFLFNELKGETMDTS
UniProt Q9ULJ3: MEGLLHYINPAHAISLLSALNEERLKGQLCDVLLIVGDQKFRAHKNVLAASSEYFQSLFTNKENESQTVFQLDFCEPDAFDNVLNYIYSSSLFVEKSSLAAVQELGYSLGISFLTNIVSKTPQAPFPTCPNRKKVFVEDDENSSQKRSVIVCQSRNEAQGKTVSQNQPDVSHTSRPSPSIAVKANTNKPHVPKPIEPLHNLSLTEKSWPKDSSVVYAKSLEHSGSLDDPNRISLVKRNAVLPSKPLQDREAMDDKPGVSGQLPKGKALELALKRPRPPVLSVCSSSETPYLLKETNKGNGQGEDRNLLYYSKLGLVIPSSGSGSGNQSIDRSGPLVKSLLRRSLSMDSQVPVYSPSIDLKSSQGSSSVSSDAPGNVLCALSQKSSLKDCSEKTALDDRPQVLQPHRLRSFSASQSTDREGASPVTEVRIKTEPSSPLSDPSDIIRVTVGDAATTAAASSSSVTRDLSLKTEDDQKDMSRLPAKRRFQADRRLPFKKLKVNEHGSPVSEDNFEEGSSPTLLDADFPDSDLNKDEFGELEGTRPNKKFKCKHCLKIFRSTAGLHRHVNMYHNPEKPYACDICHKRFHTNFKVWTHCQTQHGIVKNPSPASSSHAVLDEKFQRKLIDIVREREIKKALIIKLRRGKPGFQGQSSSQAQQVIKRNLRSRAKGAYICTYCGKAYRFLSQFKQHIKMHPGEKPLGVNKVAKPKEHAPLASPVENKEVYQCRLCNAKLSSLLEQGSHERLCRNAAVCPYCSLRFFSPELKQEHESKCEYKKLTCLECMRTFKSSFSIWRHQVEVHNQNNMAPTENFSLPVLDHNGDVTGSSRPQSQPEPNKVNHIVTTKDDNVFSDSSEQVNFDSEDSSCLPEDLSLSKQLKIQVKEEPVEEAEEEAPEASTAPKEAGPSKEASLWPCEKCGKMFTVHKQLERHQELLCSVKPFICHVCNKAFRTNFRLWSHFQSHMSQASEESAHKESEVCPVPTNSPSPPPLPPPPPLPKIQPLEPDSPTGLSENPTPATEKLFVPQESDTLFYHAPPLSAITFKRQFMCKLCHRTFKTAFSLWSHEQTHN
UniProt Q9UNK0: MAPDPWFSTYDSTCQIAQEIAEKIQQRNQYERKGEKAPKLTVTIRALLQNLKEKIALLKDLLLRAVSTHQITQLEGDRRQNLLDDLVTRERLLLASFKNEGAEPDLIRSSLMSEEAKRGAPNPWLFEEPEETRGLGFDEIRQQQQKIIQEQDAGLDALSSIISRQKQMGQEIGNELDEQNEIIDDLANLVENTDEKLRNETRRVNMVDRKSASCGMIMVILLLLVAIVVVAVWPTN
UniProt Q9UJY5: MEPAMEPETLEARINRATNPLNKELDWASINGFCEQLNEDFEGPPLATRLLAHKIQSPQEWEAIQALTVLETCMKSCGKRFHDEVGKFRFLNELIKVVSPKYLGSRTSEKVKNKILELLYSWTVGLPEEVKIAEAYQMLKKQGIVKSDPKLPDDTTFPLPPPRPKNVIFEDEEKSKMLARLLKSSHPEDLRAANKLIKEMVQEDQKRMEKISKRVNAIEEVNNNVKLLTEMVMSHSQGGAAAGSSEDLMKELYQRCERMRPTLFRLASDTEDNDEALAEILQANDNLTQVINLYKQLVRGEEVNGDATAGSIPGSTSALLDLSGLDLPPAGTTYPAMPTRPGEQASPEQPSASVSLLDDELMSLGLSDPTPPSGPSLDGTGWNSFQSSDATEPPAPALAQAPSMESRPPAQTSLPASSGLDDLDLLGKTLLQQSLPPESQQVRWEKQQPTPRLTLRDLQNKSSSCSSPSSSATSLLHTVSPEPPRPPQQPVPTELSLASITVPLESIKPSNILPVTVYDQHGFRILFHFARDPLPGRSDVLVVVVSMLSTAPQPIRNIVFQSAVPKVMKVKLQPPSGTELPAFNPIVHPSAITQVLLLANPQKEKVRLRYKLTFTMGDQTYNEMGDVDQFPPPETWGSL
UniProt Q9Y259: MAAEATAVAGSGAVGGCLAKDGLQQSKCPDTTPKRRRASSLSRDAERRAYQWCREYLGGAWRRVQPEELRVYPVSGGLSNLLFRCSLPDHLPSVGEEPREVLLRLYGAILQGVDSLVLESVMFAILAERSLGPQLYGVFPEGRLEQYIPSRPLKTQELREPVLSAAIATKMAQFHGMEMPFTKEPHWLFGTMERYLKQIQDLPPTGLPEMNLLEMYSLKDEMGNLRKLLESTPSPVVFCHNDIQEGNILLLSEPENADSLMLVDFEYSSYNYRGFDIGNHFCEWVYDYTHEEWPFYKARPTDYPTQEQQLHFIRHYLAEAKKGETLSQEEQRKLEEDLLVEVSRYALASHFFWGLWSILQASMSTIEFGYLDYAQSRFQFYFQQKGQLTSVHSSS
UniProt Q9ULV4, whole entry: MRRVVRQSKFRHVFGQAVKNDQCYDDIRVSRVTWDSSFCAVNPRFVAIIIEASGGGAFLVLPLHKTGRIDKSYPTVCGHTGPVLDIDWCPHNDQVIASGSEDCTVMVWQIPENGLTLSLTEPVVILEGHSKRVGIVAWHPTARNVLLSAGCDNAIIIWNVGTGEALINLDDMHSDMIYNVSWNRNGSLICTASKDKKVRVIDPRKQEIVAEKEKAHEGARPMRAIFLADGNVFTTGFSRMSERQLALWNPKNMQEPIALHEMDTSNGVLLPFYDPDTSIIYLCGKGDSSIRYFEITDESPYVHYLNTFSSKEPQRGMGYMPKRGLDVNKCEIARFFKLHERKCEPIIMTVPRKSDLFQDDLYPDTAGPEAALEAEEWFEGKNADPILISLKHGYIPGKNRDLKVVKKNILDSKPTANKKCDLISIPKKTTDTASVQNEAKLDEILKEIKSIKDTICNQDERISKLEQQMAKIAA
UniProt Q9UKV5, whole entry: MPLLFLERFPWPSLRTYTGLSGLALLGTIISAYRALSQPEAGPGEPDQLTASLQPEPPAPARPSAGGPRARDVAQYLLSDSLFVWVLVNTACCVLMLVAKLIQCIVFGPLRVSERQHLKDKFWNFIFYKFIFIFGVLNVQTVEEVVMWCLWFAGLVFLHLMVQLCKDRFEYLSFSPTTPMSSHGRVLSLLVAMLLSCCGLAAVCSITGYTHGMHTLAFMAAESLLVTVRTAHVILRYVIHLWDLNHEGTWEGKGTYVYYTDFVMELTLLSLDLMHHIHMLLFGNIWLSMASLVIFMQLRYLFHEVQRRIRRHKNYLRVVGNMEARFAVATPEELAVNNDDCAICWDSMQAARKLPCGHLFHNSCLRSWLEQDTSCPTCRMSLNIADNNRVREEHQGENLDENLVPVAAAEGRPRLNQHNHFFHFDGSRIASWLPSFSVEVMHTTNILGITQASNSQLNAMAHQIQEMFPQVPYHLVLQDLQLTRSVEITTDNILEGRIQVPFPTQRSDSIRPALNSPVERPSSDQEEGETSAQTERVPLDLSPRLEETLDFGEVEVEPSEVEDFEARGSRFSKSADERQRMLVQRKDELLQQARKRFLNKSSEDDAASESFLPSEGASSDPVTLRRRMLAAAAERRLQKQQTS
UniProt Q9UNX4: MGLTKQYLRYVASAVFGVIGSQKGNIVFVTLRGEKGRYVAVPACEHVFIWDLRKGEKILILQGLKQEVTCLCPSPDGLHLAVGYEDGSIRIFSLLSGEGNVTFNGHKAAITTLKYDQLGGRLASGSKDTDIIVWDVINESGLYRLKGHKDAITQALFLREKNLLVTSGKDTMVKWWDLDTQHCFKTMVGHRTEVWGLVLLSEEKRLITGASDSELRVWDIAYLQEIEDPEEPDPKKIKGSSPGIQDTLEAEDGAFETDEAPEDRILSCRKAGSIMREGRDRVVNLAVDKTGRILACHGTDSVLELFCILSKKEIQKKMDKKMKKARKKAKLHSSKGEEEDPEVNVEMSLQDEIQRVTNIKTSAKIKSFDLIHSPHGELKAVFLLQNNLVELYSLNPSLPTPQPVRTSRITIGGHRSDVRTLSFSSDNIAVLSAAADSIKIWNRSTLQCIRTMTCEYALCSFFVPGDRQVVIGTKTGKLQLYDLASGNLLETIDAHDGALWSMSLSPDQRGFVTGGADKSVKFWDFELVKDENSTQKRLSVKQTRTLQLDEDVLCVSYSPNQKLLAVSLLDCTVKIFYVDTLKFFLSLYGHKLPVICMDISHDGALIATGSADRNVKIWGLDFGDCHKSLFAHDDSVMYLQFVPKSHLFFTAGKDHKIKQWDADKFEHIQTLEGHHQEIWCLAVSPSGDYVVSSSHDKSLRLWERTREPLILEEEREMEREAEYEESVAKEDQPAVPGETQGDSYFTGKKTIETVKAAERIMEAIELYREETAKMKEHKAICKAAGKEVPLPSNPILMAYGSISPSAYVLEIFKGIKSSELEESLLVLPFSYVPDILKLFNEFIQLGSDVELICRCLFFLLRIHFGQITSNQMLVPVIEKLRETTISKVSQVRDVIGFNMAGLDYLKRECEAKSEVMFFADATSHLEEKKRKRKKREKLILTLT
UniProt Q9UKT4: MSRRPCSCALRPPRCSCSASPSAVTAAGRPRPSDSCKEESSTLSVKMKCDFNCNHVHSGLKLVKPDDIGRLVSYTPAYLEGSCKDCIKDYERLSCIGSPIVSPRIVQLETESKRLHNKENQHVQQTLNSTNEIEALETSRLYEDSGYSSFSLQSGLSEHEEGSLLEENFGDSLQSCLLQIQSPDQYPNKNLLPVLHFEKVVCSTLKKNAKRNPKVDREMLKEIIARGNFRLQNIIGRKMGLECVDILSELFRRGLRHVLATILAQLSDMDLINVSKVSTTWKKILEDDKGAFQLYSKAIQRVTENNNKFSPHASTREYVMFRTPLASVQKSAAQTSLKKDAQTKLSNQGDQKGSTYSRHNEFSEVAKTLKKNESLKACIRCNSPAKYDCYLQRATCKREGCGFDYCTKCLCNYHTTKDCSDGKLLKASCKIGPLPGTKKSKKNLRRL

These targets were tested with Cc1nc(Nc2ncc(C(=O)Nc3c(C)cccc3Cl)s2)cc(N2CCN(CCO)CC2)n1 [dasatinib] (assay: log2 fold change of tryptic peptide abundance, ligand vs vehicle (limited proteolysis) (log2 ratio); higher = more trypsin-susceptible (destabilized)). Details: ligand concentration: 5 uM; sample: K562 cleared lysate.
With “PACSIN2 (peptide sequence: EVLLEVQK, peptide start residue: 246) (UniProt Q9UNF0)” the log2 fold change was -0.134.
Target “DMTF1 (peptide sequence: NNPTLLENK, peptide start residue: 415) (UniProt Q9Y222)” has a log2 fold change of 0.222.
For “C19orf53 (peptide sequence: KNLEVGIR, peptide start residue: 51) (UniProt Q9UNZ5)”, the log2 fold change was -0.246.
“STOML2 (peptide sequence: ESMQMQVEAERR, peptide start residue: 188) (UniProt Q9UJZ1)” was tested, and the log2 fold change was -0.366.
“RUVBL2 (peptide sequence: FVQCPDGELQKR, peptide start residue: 224) (UniProt Q9Y230)” showed a log2 fold change of 0.107.
In the case of “UniProt Q9UI30 (peptide sequence: MKLLTHNLLSSHVR, peptide start residue: 1)”, the log2 fold change is reported as 0.246.
Work on “UniProt Q9ULJ3 (peptide sequence: DSSVVYAK, peptide start residue: 211)” yielded a log2 fold change of 0.219.
Work on “STX8 (peptide sequence: GLGFDEIR, peptide start residue: 134) (UniProt Q9UNK0)” yielded a log2 fold change of 0.114.
For “TFR2 (peptide sequence: LWGLFQR, peptide start residue: 4) (UniProt Q9UP52)”, the log2 fold change was -0.0937.
“INTS6 (peptide sequence: VVQETGIK, peptide start residue: 478) (UniProt Q9UL03)” gave a log2 fold change of 0.355.
“UniProt Q9ULD9 (peptide sequence: GHSSTTAQSSQLK, peptide start residue: 978)” was tested, and the log2 fold change was 0.785.
Work on “ZDHHC8 (peptide sequence: TSSSSLQADQASSNAPGPRPSSGSHR, peptide start residue: 641) (UniProt Q9ULC8)” yielded a log2 fold change of -0.0773.
“UniProt Q9Y242 (peptide sequence: LRVDKAPLTPTGNR, peptide start residue: 255)” gave a log2 fold change of -0.115.
For “HPS5 (peptide sequence: ALIQSMLEK, peptide start residue: 1111) (UniProt Q9UPZ3)”, the log2 fold change was -0.278.
Target “SSR3 (peptide sequence: KLSEADNR, peptide start residue: 103) (UniProt Q9UNL2)” has a log2 fold change of 0.000753.
With “SCML2 (peptide sequence: NPMYIHTSVSQDFSR, peptide start residue: 561) (UniProt Q9UQR0)” the log2 fold change was -0.258.
Target “GGA1 (peptide sequence: MRPTLFR, peptide start residue: 259) (UniProt Q9UJY5)” has a log2 fold change of -0.137.
“UniProt Q9UK80 (peptide sequence: TEPPASHGSFHMISAR, peptide start residue: 174)” was tested, and the log2 fold change was -0.0055.
Work on “CHKB (peptide sequence: DGLQQSKCPDTTPK, peptide start residue: 21) (UniProt Q9Y259)” yielded a log2 fold change of -0.0411.
In the case of “CORO1C (peptide sequence: GLDVNKCEIAR, peptide start residue: 324) (UniProt Q9ULV4)”, the log2 fold change is reported as -0.837.
For “AMFR (peptide sequence: LNQHNHFFHFDGSR, peptide start residue: 415) (UniProt Q9UKV5)”, the log2 fold change was 0.266.
“WDR3 (peptide sequence: NLLVTSGKDTMVK, peptide start residue: 162) (UniProt Q9UNX4)” was tested, and the log2 fold change was -0.248.
Target “NOTCH3 (peptide sequence: TGETALHLAAR, peptide start residue: 1927) (UniProt Q9UM47)” has a log2 fold change of -0.434.
In the case of “PRR12 (peptide sequence: TSHPETDILHR, peptide start residue: 37) (UniProt Q9ULL5)”, the log2 fold change is reported as -0.346.
With “UniProt Q9ULV0 (peptide sequence: KELEEER, peptide start residue: 755)” the log2 fold change was -0.51.
“DDX25 (peptide sequence: TAAFVLAMLSR, peptide start residue: 144) (UniProt Q9UHL0)” was tested, and the log2 fold change was 0.299.
“FBXO5 (peptide sequence: ASCKIGPLPGTKK, peptide start residue: 427) (UniProt Q9UKT4)” gave a log2 fold change of -0.517.
